Experimental data: the supplement of paper PMC4683952
Counter-ions that a name gives are not always drawn. Some of the results follow. Rule as the data show it: active = 2.5 or more and inactive = the rest. Repeats in this data set agree poorly, so a single value says little.

system: Lgr5 (MarsCy1-Lgr5-EGFP, U2OS); experiment: cell-surface Lgr5 expression (SCi1 fluorescence, background-subtracted) relative to WT control (fold of WT control); higher = more Lgr5 at the plasma membrane; conditions: U2OS MarsCy1-Lgr5-EGFP stable; treatment time: overnight; library: Prestwick; 20 µM

| Compound | cell-surface Lgr5 expression |
| --- | --- |
| c1ccc(CN(CC2=NCCN2)c2ccccc2)cc1 [Antazoline hydrochloride] | inactive: 1.25 |
| CC(C(=O)O)c1ccc(C(=O)c2ccccc2)s1 (stereo unspecified) [Tiaprofenic acid] | inactive: 0.25 |
| CC(=O)N(CC(O)CN(C(C)=O)c1c(I)c(C(=O)NCC(O)CO)c(I)c(C(=O)NCC(O)CO)c1I)c1c(I)c(C(=O)NCC(O)CO)c(I)c(C(=O)NCC(O)CO)c1I (stereo unspecified) [Iodixanol] | inactive: 1.59 |
| C=CCSCC1Nc2cc(Cl)c(S(N)(=O)=O)cc2S(=O)(=O)N1 (stereo unspecified) [Althiazide] | inactive: 2.37 |
| CCN(CC)CCOC(=O)C(c1ccccc1)c1ccccc1 [Adiphenine hydrochloride] | inactive: 1.75 |
| OC(CCCN1CCCCC1)(c1ccccc1)c1ccccc1 [Diphenidol hydrochloride] | inactive: 0.138 |
| C[C@]12CC[C@@H]3c4ccc(OS(=O)(=O)O)cc4CC[C@H]3[C@@H]1CCC2=O [Estropipate] | inactive: 1.73 |
| Cc1ccc(S(=O)(=O)NC(=O)NN2CCCCCC2)cc1 [Tolazamide] | inactive: 1.65 |
| Cc1ccsc1/C=C/C1=NCCCN1C [Morantel tartrate] | inactive: 1.11 |
| CN(C)c1ccc(O)c2c1C[C@H]1C[C@H]3[C@H](N(C)C)C(O)=C(C(N)=O)C(=O)[C@@]3(O)C(O)=C1C2=O [Minocycline hydrochloride] | inactive: 0.881 |
| CCN(CC)CCNc1ccc(CO)c2sc3ccccc3c(=O)c12 [Hycanthone] | active: 2.81 |
| CNC(C)CCC=C(C)C (stereo unspecified) [Isometheptene mucate] | inactive: 1.51 |
| O=C(COc1ccc(Cl)cc1)N1CCN(Cc2ccc3c(c2)OCO3)CC1 [Fipexide hydrochloride] | inactive: 0.881 |
| CN(Cc1cnc2nc(N)nc(N)c2n1)c1ccc(C(=O)N[C@@H](CCC(=O)O)C(=O)O)cc1 (racemic) [Amethopterin (R,S)] | inactive: 1.13 |
| CN(Cc1cnc2nc(N)nc(N)c2n1)c1ccc(C(=O)N[C@@H](CCC(=O)O)C(=O)O)cc1 [Methotrexate] | inactive: 0.718 |
| CC1=C(/C=C/C(C)=C/C=C/C(C)=C\C(=O)O)C(C)(C)CCC1 [Isotretinoin] | inactive: 1.33 |
| CC/C(=C(/CC)c1ccc(O)cc1)c1ccc(O)cc1 [Diethylstilbestrol] | inactive: 1.85 |
| CSc1ccc2c(c1)N(CCC1CCCCN1C)c1ccccc1S2 (stereo unspecified) [Thioridazine hydrochloride] | inactive: 1.03 |
| Cc1cc(-c2ccccc2)nnc1NCCN1CCOCC1 [Minaprine dihydrochloride] | inactive: 1.31 |
| NC(N)=Nc1nc(CSCC/C(N)=N/S(N)(=O)=O)cs1 [Famotidine] | inactive: 1.07 |
| CN(C)[C@@H]1C(O)=C(C(N)=O)C(=O)[C@@]2(O)C(O)=C3C(=O)c4c(O)cccc4[C@@](C)(O)[C@H]3[C@H](O)[C@@H]12 [Oxytetracycline dihydrate] | inactive: 0.554 |
| COc1cc(NC(C)CCCN)c2ncccc2c1 (stereo unspecified) [Primaquine diphosphate] | inactive: 0.785 |

Taken from above.
cell-surface Lgr5 expression, CC/C(=C(/CC)c1ccc(O)cc1)c1ccc(O)cc1 [Diethylstilbestrol] reads inactive: 1.85
cell-surface Lgr5 expression, CN(C)[C@@H]1C(O)=C(C(N)=O)C(=O)[C@@]2(O)C(O)=C3C(=O)c4c(O)cccc4[C@@](C)(O)[C@H]3[C@H](O)[C@@H]12 [Oxytetracycline dihydrate] reads inactive: 0.554

Exported with tabs: part of the list above
Compound	cell-surface Lgr5 expression
c1ccc(CN(CC2=NCCN2)c2ccccc2)cc1 [Antazoline hydrochloride]	inactive: 1.25
CN(Cc1cnc2nc(N)nc(N)c2n1)c1ccc(C(=O)N[C@@H](CCC(=O)O)C(=O)O)cc1 (racemic) [Amethopterin (R,S)]	inactive: 1.13
Cc1cc(-c2ccccc2)nnc1NCCN1CCOCC1 [Minaprine dihydrochloride]	inactive: 1.31

(next part)

| Compound | cell-surface Lgr5 expression |
| --- | --- |
| CCCCC1(COC(=O)CCC(=O)O)C(=O)N(c2ccccc2)N(c2ccccc2)C1=O [Suxibuzone] | inactive: 1.88 |
| CCCCNc1c(C(=O)OCC)c(C)nc2c1cnn2CC [Tracazolate hydrochloride] | inactive: 0.554 |
| O=c1cc(-c2ccc(O)cc2)oc2c([C@@H]3O[C@H](CO)[C@@H](O)[C@H](O)[C@H]3O)c(O)cc(O)c12 [Vitexin] | inactive: 1.91 |
| COc1cc(-c2ccc(=O)[nH]n2)ccc1OC(F)F [Zardaverine] | inactive: 1.01 |
| CCOC(=O)NNc1nncc2ccccc12 [Todralazine hydrochloride] | inactive: 1.85 |
| CCCCN1CCCCC1C(=O)Nc1c(C)cccc1C (stereo unspecified) [Bupivacaine hydrochloride] | inactive: 1.41 |
| CC[C@@H](C(=O)[C@@H](C)[C@@H](O)[C@H](C)CCc1ccc(C)c(O)c1C(=O)O)[C@H]1O[C@](CC)([C@H]2CC[C@](O)(CC)[C@H](C)O2)C[C@@H]1C [Lasalocid sodium salt] | inactive: 1.79 |
| CC(COc1ccccc1)NC(C)C(O)c1ccc(O)cc1 (stereo unspecified) [Isoxsuprine hydrochloride] | inactive: 2.23 |
| CC(C)(C)c1ccc(C(O)CCCN2CCC(C(O)(c3ccccc3)c3ccccc3)CC2)cc1 (stereo unspecified) [Terfenadine] | inactive: 0.651 |
| CC(=O)[C@H]1CC[C@H]2[C@@H]3CC=C4C[C@@H](O)CC[C@]4(C)[C@H]3CC[C@]12C [Pregnenolone] | inactive: 2.13 |
| COc1ccc(CC2c3cc(OC)c(OC)cc3CC[N+]2(C)CCC(=O)OCCCCCOC(=O)CC[N+]2(C)CCc3cc(OC)c(OC)cc3C2Cc2ccc(OC)c(OC)c2)cc1OC (stereo unspecified) [Atracurium besylate] | inactive: 0.985 |
| Cc1n[nH]c(=O)[nH]c1=O [Azathymine, 6] | active: 3.94 |
| CN(C)CCCN1c2ccccc2Sc2ccc(Cl)cc21 [Chlorpromazine hydrochloride] | inactive: 1.37 |
| CO[C@H]1C[C@H](O[C@H]2[C@H](C)[C@@H](O[C@@H]3O[C@H](C)C[C@H](N(C)C)[C@H]3O)[C@@H](C)C[C@@]3(CO3)C(=O)[C@H](C)[C@@H](O)[C@@H](C)[C@@H](C)OC(=O)[C@@H]2C)O[C@@H](C)[C@@H]1O [Oleandomycin phosphate] | inactive: 0.621 |
| Nc1ccc(S(=O)(=O)Nc2ccccn2)cc1 [Sulfapyridine] | inactive: 1.79 |
| C[N+]1(C)CCC(OC(=O)C(O)(c2ccccc2)C2CCCC2)C1 (stereo unspecified) [Glycopyrrolate] | inactive: 1.78 |
| Clc1ccc(CCC(Cn2ccnc2)Sc2c(Cl)cccc2Cl)cc1 (stereo unspecified) [Butoconazole nitrate] | inactive: 0.889 |
| N#Cc1ccc(C(c2ccc(C#N)cc2)n2cncn2)cc1 [Letrozole] | inactive: 1.47 |
| NCc1ccccc1CC(=O)N[C@@H]1C(=O)N2C(C(=O)O)=C(CSc3nnnn3CC(=O)O)CS[C@H]12 [Ceforanide] | inactive: 0.822 |
| N=C(NCCCCCCNC(=N)NC(=N)Nc1ccc(Cl)cc1)NC(=N)Nc1ccc(Cl)cc1 [Chlorhexidine] | inactive: 0.933 |
| COc1c2occc2cc2ccc(=O)oc12 [Methoxy-8-psoralen] | inactive: 0.77 |
| CN1CCN(C2=Nc3ccccc3Oc3ccc(Cl)cc32)CC1 [Loxapine succinate] | inactive: 1.05 |

| Compound | cell-surface Lgr5 expression |
| --- | --- |
| C[C@@H]1C[C@H]2[C@@H]3C[C@H](F)C4=CC(=O)C=C[C@]4(C)[C@@]3(F)[C@@H](O)C[C@]2(C)[C@@]1(O)C(=O)CO [Flumethasone] | active: 2.95 |
| O=C(O)Cc1ccc(-c2ccccc2)cc1 [Felbinac] | inactive: 1.91 |
| COc1cc(C(=O)OCCCN2CCCN(CCCOC(=O)c3cc(OC)c(OC)c(OC)c3)CC2)cc(OC)c1OC [Dilazep dihydrochloride] | inactive: 0.614 |
| Cc1[nH]ccc2c1[nH]c1cc(=O)ccc12 [Harmol hydrochloride monohydrate] | inactive: 0.978 |
| CCN(CC)CCOC(=O)C1(C2CCCCC2)CCCCC1 [Dicyclomine hydrochloride] | inactive: 1.88 |
| CC(N/C(=N\C#N)Nc1ccncc1)C(C)(C)C (stereo unspecified) [Pinacidil] | inactive: 0.822 |
| COc1ccc([C@@H]2CC(=O)c3c(O)cc(O)cc3O2)cc1O [Hesperetin] | inactive: 0.844 |
| CN(C)CCCN1c2ccccc2Sc2ccc(C(F)(F)F)cc21 [Triflupromazine hydrochloride] | inactive: 1.93 |
| Cc1ccc(C(=O)c2ccc(CC(=O)O)n2C)cc1 [Tolmetin sodium salt dihydrate] | inactive: 1.91 |
| COC(=O)Nc1nc2cc(C(=O)c3cccs3)ccc2[nH]1 [Nocodazole] | inactive: 0.941 |
| CCCCN(CCCC)CCCOC(=O)c1ccc(N)cc1 [Butacaine] | active: 2.64 |
| CC[N+](C)(CC)CCOC(=O)C1c2ccccc2Oc2ccccc21 [Methantheline bromide] | inactive: 1.21 |
| CC(=O)OCC(=O)[C@@]1(O)CC[C@H]2[C@@H]3CCC4=CC(=O)CC[C@]4(C)[C@@]3(F)[C@@H](O)C[C@@]21C [Fludrocortisone acetate] | inactive: 2 |
| COc1ccc2c3c([nH]c2c1)[C@H]1C[C@H]2[C@H](C[C@@H](O)[C@H](OC)[C@H]2C(=O)O)CN1CC3 [Reserpinic acid hydrochloride] | inactive: 0.978 |
| NS(=O)(=O)c1cc(C2(O)NC(=O)c3ccccc32)ccc1Cl (stereo unspecified) [Chlorthalidone] | inactive: 1.88 |
| C=CC(N)CCC(=O)O (stereo unspecified) [Vigabatrin] | inactive: 2.35 |
| Cc1ncc(C[n+]2csc(CCO)c2C)c(N)n1 [Thiamine hydrochloride] | active: 3.64 |
| CCN[C@H]1CN(CCCOC)S(=O)(=O)c2sc(S(N)(=O)=O)cc21 [Brinzolamide] | inactive: 1.73 |
| CCCOc1cc(N)ccc1C(=O)OCCN(CC)CC [Propoxycaine hydrochloride] | inactive: 1.15 |
| CC[N+](C)(C)c1cccc(O)c1 [Edrophonium chloride] | inactive: 1.04 |
| OCCN1CCN(CC/C=C2/c3ccccc3Sc3ccc(C(F)(F)F)cc32)CC1 [Flupentixol dihydrochloride cis-(Z)] | inactive: 0.829 |
| CN1CCC(=C2c3ccccc3C=Cc3ccccc32)CC1 [Cyproheptadine hydrochloride] | inactive: 1.16 |
